This is one part of the list. These are further read-outs of the screen, such as a control signal, another cell line or another target. No call is given for them. The list favours compounds with an active or inconclusive main result. Words in brackets tell the shape of the fitted curve; partial curves, single points and poor fits give uncertain potencies.
Test: IkB Signaling
Conditions: ABC-DLBCL IkBa-CBG/CBR dual luciferase ratio (green luciferase fused to IkBa over red control in OCI-Ly3 lymphoma cells), 4 h
Method in brief: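 In this assay, an IκBα–CBG68 fusion accumulates when IKK-driven degradation is blocked; native CBR normalizes for cell number. OCI-Ly3 cells were treated 4 h with compound and doxycycline, then green and red light read after Chroma-Glo addition.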

[1] = measured here: control luc red channel unless noted
[2] = measured here: IkB-luc green channel
[3] = measured here: control luc red channel

Q: For CCN(CC)S(=O)(=O)c1ccc2nc(NC(=O)c3ccccc3OC)sc2c1, which AC50 [1] is on record?
A: 3.16 µM [falling, full curve, poor fit]

Q: What does the source list for Cc1nnc(N2CCC(C(=O)NCc3ccc(F)cc3)CC2)c2nn(-c3ccc(Cl)cc3)c(C)c12?
A: AC50 [2]: 39.8 µM [rising, single point]; AC50 [3]: 39.8 µM [rising, partial curve]

Q: For Cc1ccc2[nH]c(=O)c(-c3nc4c(C)cccn4c3NCc3ccco3)cc2c1, which AC50 [1] is on record?
A: 39.8 µM [falling, single point]

Q: For CCCCOc1ccc(C(=O)NCCS(=O)(=O)N2CCN(c3ccccc3OC)CC2)cc1, which AC50 [1] is on record?
A: 25.1 µM [falling, partial curve]

Q: With CN(C)c1ccc(C(CNC(=O)c2ccccc2Cl)N2CCc3ccccc32)cc1 (configuration not stated) as the molecule, how does the AC50 [1] read?
A: 1.58 µM [falling, full curve]

Q: For Cc1ccc2oc(-c3cc(NC(=O)Cc4ccccc4)ccc3Cl)nc2c1, which AC50 [1] is on record?
A: 3.98 µM [falling, full curve]

Q: Which AC50 [1] does the source give for O=C(COc1ccc(Cl)cc1)Nc1ccc(O)c(-c2nc3ccccc3s2)c1 here?
A: 39.8 µM [falling, single point]

Q: For CC(=O)Nc1ccccc1OCC(=O)c1cc(C)n(Cc2cccs2)c1C, which AC50 [1] is on record?
A: 5.01 µM [falling, partial curve]

Q: With CCOC(=O)c1cnn(-c2ncnc3c2oc2ccccc23)c1N as the molecule, how does the AC50 [1] read?
A: 0.398 µM [rising, full curve, poor fit]

Q: Which AC50 [1] does the source give for Cc1cc(Br)ccc1NC(=O)COc1cc(=O)n(C)c2ccccc12 here?
A: 3.16 µM [rising, partial curve]

Q: For Cc1cc2ccccc2n1CCNC(=O)c1ccccc1F, which AC50 [1] is on record?
A: 25.1 µM [falling, single point]

Q: For c1ccc2sc(SN3CCOCC3)nc2c1, which AC50 [1] is on record?
A: 3.98 µM [rising, partial curve]

Q: With Cc1cc(-n2c(C)cc(C(=O)CSc3nnnn3-c3ccccc3)c2C)no1 as the molecule, how does the AC50 [1] read?
A: 12.6 µM [falling, partial curve]

Q: With O=C(NCC(c1ccc2c(c1)OCO2)N1CCN(c2ccccc2)CC1)C(=O)Nc1ccccc1 (configuration not stated) as the molecule, how does the AC50 [1] read?
A: 3.98 µM [falling, partial curve, poor fit]

Q: Which AC50 [1] does the source give for COC(=O)c1ccc(C2C3=C(Nc4nnnn42)c2ccccc2OC3)cc1 (configuration not stated) here?
A: 25.1 µM [falling, single point]

Q: For Cc1ccc2nc(NC(=O)CCNS(=O)(=O)c3ccc(Br)s3)sc2c1, which AC50 [1] is on record?
A: 20 µM [falling, partial curve]

Q: For COc1ccc(C(=O)Nc2ccccc2)cc1S(=O)(=O)Nc1ccc(Br)cc1, which AC50 [1] is on record?
A: 3.16 µM [falling, full curve]

Q: For Cn1c(-c2ccc(F)cc2)cnc1SCC(=O)Nc1ccccc1N1CCOCC1, which AC50 [1] is on record?
A: 0.01 µM [falling, full curve]

Q: With O=C(OCc1cc(=O)n2nc(C3CC3)sc2n1)c1ccc(NC(=O)c2ccccc2Cl)cc1 as the molecule, how does the AC50 [1] read?
A: 31.6 µM [falling, partial curve]

Q: Which AC50 [1] does the source give for COC(=O)CSc1nnc(-c2cccs2)n1-c1ccc(Cl)cc1 here?
A: 3.98 µM [falling, full curve]

Q: With O=C(Nc1ccc2nc(SCC(=O)N3CCCc4ccccc43)sc2c1)c1ccccc1F as the molecule, how does the AC50 [1] read?
A: 12.6 µM [falling, partial curve]

Q: For Cc1ccc(NC(=O)CCn2nc(-c3ccccc3)c3ccccc3c2=O)c(C)c1, which AC50 [1] is on record?
A: 25.1 µM [falling, single point]

Q: Which AC50 [1] does the source give for CCc1ccc(C2=C(C)C(N3CCC(C(=O)Nc4ccc(F)cc4)CC3)=NS2(=O)=O)cc1 here?
A: 6.31 µM [falling, single point]

Q: With Cc1cccc2cc(CN(C(=O)c3cccc(Cl)c3)c3ccccc3)c(=O)[nH]c12 as the molecule, how does the AC50 [1] read?
A: 3.16 µM [falling, partial curve]

Q: For CCN(C(=O)CSc1nc(-c2ccccc2)no1)c1cccc(C)c1, which AC50 [1] is on record?
A: 1.26 µM [falling, full curve]

Q: For COc1ccccc1Nc1nn2c(=O)c3ccc(C(=O)NC4CCC(C)CC4)cc3nc2s1 (configuration not stated), which AC50 [1] is on record?
A: 25.1 µM [falling, single point]

Q: For COc1ccccc1C(=O)Nc1cccc(OCc2cc(=O)n3c4c(sc3n2)CCCC4)c1, which AC50 [1] is on record?
A: 15.8 µM [falling, partial curve]

Q: For COc1ccc(NC(=O)C2(S(=O)(=O)c3ccc(C)cc3)CC2)c(OC)c1, which AC50 [1] is on record?
A: 0.0631 µM [rising, full curve]

Q: With COc1ccc(CCNC(=O)C2CCN(Cc3nc(-c4cccc(Cl)c4)oc3C)CC2)cc1OC as the molecule, how does the AC50 [1] read?
A: 31.6 µM [falling, partial curve]

Q: Which AC50 [1] does the source give for CCOc1ccc(NC(c2ccc(Cl)cc2)c2nnc(-c3cccc(F)c3)o2)cc1 (configuration not stated) here?
A: 31.6 µM [falling, single point]

Q: With Cc1ccc(CN(C(=O)COc2cccc(Cl)c2)c2ccccn2)o1 as the molecule, how does the AC50 [1] read?
A: 39.8 µM [falling, single point]

Q: Which AC50 [1] does the source give for CCSc1ncc(Cl)c(C(=O)Nc2ccc(S(=O)(=O)N3CCCCC3CC)cc2)n1 (configuration not stated) here?
A: 2 µM [falling, single point]

Q: For COc1cc(O)ccc1-c1nc2ccc(Br)cn2c1Nc1ccccc1C, which AC50 [1] is on record?
A: 15.8 µM [falling, partial curve]

Q: Which AC50 [1] does the source give for O=C(CSc1nccn1Cc1ccc(F)cc1)NC1CCCC1 here?
A: 20 µM [falling, single point]

Q: What does the source list for COc1ccccc1OCCn1cc(C(=O)c2ccco2)c2ccccc21?
A: AC50 [2]: 39.8 µM [falling, single point]; AC50 [3]: 39.8 µM [falling, single point]

Q: With CCOC(=O)c1ccc(NC(=O)C2CCN(S(=O)(=O)Cc3ccccc3)CC2)cc1 as the molecule, how does the AC50 [1] read?
A: 15.8 µM [falling, partial curve]

Q: With O=S(=O)(Nc1ccc(S(=O)(=O)N2CCCCC2)cc1)c1ccc(Br)s1 as the molecule, how does the AC50 [1] read?
A: 12.6 µM [falling, partial curve]

Q: For Cc1ccc(C(=O)NCCSc2c[nH]c3ccccc23)cc1C, which AC50 [1] is on record?
A: 25.1 µM [falling, partial curve]

Q: Which AC50 [1] does the source give for Cc1cccc(NC(=O)c2ccc(F)c(S(=O)(=O)NCc3ccc4c(c3)OCO4)c2)c1 here?
A: 31.6 µM [falling, single point]

Q: For Cc1cc(C)cc(NC(=O)CSc2oc(-c3cccs3)nc2S(=O)(=O)c2ccc(Br)cc2)c1, which AC50 [1] is on record?
A: 15.8 µM [falling, partial curve]
